Measured values reported in US20090118161A1 (BAYLOR COLLEGE OF MEDICINE, published 2009).
Results are given in words; binding and its absence hold for the method and conditions named. Some binding calls cover weakened binding; strength is not graded here.

By UniProt entry, the sequences of proteins in these tests, tags left out. Residues count along the entry.
UniProt P04275, residues 1238-1471: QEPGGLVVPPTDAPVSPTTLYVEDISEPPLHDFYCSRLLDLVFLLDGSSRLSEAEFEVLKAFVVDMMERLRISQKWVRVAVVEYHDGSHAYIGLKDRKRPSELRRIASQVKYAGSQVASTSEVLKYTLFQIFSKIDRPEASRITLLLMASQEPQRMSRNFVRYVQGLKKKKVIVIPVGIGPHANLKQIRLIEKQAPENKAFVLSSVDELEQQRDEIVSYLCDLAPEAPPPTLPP

Biological target: recombinant VWF-A1 domain polypeptide (amino acids Q1238-P1471) (human) (UniProt P04275)
Test: assay not described

Binder: ILQRVREIRY [peptide B9 (…), derived from the A2 domain]
- binding: binds
